This is one part of the list.

Sequences of proteins named here, by UniProt entry; tags and fusion partners are left off. A change or cut given only in a name is not applied to a line headed by its entry.
UniProt Q9UPW6: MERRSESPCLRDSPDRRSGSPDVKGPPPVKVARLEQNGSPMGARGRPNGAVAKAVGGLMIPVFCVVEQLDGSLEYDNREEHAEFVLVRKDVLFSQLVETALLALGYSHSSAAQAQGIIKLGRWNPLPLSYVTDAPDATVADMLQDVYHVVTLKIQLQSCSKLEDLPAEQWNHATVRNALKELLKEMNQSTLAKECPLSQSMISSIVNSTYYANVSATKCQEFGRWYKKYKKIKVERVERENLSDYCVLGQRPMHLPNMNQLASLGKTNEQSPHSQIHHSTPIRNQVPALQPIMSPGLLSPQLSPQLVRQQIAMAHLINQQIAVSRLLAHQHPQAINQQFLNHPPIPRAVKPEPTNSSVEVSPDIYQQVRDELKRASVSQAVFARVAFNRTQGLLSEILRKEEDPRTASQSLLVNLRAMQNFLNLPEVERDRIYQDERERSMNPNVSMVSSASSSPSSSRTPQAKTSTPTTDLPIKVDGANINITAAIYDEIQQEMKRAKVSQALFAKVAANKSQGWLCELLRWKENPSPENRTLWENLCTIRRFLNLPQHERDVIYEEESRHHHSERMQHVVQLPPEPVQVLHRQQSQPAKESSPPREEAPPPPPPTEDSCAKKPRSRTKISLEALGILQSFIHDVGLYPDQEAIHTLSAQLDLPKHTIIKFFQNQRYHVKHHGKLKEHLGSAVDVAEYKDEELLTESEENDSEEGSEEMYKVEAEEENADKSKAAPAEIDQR
UniProt Q8IZE3: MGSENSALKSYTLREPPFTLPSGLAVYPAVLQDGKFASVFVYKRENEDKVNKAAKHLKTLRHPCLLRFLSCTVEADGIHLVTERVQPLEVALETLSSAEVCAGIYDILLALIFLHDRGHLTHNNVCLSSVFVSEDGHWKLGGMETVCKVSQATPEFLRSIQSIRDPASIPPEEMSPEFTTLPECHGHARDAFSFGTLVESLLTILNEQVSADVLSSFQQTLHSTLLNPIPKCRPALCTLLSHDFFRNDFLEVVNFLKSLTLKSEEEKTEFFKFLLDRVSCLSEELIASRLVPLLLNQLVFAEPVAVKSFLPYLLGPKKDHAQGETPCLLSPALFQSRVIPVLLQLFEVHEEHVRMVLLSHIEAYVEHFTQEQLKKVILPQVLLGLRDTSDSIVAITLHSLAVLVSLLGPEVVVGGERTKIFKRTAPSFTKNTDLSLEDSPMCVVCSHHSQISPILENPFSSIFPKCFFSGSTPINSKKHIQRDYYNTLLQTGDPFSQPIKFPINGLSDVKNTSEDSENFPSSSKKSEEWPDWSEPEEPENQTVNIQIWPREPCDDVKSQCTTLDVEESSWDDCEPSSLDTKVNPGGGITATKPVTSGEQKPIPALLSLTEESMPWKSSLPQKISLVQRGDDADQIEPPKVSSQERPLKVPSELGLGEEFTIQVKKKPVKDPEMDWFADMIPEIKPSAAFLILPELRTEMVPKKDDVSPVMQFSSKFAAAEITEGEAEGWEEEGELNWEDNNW
UniProt P62341, whole entry, looked up: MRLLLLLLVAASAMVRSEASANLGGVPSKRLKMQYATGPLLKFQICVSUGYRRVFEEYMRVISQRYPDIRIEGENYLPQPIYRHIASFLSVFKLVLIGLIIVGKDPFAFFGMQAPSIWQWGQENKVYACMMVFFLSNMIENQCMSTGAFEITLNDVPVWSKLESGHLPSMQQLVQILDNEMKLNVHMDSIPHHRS
UniProt Q9H0E3: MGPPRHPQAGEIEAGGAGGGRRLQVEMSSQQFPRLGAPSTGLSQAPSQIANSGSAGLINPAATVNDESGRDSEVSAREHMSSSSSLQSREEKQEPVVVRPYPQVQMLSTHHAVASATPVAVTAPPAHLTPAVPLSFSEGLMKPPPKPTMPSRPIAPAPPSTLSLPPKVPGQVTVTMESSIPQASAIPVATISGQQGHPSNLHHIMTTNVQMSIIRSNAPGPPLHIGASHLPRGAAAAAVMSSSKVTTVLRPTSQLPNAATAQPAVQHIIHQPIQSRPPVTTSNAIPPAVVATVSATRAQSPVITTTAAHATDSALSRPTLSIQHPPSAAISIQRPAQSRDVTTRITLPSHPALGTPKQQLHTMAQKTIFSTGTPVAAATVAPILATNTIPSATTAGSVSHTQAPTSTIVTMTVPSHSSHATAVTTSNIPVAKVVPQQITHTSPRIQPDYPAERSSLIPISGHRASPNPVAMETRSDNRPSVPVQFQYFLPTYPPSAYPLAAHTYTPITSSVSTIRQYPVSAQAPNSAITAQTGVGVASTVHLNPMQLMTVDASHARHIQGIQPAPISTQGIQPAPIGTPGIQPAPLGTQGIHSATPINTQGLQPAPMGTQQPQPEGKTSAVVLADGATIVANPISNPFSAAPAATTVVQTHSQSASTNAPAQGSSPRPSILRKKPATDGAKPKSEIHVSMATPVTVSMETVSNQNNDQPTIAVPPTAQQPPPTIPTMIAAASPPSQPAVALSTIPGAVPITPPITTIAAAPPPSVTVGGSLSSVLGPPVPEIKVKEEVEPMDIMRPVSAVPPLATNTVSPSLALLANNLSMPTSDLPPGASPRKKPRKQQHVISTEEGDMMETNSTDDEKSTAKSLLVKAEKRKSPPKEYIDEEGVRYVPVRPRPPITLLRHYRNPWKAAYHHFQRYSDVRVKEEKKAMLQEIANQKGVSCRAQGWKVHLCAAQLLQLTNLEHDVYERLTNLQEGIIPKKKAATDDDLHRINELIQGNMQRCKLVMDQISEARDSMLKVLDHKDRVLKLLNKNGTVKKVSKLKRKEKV
UniProt Q9Y6D0, whole entry, looked up: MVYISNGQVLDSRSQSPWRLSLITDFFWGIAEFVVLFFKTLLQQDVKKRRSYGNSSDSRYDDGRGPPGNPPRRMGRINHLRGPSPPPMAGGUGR
UniProt Q5VUM1: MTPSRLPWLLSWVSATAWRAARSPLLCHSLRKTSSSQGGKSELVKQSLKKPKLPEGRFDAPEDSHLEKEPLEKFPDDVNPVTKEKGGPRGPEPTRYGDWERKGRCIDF
UniProt Q8N9R8: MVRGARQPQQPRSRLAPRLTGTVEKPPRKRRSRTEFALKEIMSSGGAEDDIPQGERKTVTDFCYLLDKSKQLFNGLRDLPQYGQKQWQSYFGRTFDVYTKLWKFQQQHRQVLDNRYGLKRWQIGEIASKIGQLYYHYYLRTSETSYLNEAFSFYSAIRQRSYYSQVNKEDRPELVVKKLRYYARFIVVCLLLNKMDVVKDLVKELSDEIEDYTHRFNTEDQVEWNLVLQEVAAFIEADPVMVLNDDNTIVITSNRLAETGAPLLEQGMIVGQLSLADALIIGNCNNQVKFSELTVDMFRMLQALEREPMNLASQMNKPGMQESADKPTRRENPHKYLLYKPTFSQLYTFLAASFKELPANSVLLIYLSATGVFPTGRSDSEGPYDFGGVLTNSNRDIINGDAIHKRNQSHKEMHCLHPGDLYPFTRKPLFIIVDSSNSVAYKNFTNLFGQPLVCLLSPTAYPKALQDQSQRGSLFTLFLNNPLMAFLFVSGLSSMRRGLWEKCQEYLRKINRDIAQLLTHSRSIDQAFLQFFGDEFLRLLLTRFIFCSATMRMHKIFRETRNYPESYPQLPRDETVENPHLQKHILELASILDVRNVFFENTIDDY
UniProt Q68CR1: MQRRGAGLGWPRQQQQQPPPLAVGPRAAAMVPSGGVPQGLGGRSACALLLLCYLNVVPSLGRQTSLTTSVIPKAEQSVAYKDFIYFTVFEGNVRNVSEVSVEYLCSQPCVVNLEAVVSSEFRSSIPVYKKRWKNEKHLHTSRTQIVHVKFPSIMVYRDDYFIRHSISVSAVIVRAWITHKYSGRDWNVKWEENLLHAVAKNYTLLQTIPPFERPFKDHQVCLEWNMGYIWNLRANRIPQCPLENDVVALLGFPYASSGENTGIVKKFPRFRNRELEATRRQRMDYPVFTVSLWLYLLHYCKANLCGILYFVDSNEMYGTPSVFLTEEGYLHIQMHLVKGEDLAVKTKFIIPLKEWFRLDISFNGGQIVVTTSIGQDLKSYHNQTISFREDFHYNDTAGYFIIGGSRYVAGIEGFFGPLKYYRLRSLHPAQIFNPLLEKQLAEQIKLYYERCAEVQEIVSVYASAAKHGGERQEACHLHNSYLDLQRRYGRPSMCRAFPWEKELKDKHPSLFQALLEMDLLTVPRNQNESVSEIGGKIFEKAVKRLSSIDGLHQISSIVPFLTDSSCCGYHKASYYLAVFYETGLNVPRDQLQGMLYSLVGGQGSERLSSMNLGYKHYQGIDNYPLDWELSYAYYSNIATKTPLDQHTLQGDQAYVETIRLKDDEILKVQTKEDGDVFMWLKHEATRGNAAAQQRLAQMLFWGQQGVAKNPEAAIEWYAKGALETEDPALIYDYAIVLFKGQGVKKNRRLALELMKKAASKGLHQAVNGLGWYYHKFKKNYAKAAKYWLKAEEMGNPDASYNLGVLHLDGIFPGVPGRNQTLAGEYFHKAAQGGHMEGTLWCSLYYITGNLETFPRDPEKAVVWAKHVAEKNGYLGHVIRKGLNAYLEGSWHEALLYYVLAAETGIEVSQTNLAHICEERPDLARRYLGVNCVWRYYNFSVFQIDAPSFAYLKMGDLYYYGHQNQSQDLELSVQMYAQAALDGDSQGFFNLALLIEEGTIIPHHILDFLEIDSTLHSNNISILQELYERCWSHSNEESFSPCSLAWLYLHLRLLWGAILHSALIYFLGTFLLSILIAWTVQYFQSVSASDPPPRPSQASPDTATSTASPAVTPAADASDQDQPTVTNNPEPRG
UniProt O95969: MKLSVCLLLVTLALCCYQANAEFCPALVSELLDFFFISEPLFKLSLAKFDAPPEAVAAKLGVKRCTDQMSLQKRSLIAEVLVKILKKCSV
UniProt Q14108: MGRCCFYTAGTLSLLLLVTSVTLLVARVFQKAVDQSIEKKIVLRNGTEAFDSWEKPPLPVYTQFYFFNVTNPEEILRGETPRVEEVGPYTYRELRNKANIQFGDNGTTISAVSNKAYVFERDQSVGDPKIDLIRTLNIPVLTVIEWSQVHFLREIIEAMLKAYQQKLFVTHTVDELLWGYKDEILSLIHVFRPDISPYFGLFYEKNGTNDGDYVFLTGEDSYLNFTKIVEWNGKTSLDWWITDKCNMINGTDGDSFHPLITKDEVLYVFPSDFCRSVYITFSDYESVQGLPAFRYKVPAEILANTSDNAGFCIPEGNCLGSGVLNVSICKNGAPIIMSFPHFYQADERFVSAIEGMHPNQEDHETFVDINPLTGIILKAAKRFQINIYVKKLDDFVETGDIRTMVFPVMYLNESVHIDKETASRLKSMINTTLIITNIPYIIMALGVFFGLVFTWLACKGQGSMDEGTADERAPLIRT
UniProt Q9H7N4: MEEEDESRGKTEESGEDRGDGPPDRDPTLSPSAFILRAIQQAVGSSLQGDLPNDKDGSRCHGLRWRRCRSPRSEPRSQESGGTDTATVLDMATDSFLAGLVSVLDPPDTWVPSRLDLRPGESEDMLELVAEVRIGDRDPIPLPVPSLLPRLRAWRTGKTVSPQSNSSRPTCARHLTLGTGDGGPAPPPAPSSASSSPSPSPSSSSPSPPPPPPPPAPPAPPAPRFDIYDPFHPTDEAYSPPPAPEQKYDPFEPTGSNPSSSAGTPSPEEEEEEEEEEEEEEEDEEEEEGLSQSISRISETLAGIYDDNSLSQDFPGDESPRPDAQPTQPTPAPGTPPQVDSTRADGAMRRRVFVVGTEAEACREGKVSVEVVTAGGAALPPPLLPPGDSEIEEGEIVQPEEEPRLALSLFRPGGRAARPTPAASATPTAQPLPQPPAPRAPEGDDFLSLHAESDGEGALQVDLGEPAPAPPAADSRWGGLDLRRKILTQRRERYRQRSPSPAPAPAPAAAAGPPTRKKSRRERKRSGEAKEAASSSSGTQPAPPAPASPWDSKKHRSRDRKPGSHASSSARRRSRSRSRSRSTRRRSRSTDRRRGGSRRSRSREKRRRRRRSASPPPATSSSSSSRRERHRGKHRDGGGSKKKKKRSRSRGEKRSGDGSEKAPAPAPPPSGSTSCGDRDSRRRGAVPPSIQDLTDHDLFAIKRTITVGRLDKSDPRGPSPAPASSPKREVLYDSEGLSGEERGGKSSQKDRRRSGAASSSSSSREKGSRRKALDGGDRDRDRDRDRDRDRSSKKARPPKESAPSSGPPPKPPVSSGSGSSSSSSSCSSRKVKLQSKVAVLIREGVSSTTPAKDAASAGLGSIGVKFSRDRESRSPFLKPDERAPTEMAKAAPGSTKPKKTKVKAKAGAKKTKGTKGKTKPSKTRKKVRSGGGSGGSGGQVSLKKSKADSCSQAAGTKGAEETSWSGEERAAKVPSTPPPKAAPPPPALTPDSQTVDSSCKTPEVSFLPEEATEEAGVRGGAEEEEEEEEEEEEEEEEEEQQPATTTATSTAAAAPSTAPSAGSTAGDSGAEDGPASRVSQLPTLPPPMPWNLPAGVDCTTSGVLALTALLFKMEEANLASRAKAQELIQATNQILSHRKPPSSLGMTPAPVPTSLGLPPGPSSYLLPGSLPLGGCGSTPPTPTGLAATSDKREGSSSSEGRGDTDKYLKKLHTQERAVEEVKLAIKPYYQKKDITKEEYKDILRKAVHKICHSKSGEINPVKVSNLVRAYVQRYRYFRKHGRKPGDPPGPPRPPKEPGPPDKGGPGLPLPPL

Experimental findings from the supplement of paper PMC10849652 are described below.

Compound in the first experiment: CCn1cc(-c2ccnc3[nH]c(-c4cccc(CN(C)C)c4)cc23)c(-c2ccc(NC(=O)N(C)C)cc2)n1
Briefly: log2 fold change, soluble protein after heating vs DMSO (PISA); higher = thermal stabilisation; K562 lysate, 10 uM; active = over 0.2 and 3.5 SD of the protein, either way, in both replicates (recomputed). A digest of the protocol:
(§1)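 Thermal stability, expressed as log-two fold change relative to solvent controls, is given from duplicates. Crude K562 extract in PBS pH 7.4 with 1 mM MgCl2, at 1 mg/mL protein, was treated with 10 μM compound for 30 min and heated in aliquots for 3 min across 48°C-58°C. After pooling, adjustment to 0.5% NP-40 at 4°C and centrifugation at 21,000xg for 90 min, supernatant protein was measured by TMTpro 16plex LC-MS/MS with channel sums equalised.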
Turning to SATB2 (UniProt Q9UPW6), the log2 fold change is inactive: 0.074.
Still for that read-out and setting: for SEMA4G isoform 2 (UniProt Q9NTN9) the value was inactive: -0.072.
The same measure, in the same setting: for SEC62 (UniProt Q99442) the value was active: 0.373; for SAP30 (UniProt O75446), inactive: 0.103; for SDHD (UniProt O14521), inactive: -0.151.
Consider SEC11C (UniProt Q9BY50), for which the log2 fold change is inactive: -0.123.
As for SCYL3 isoform 2 (UniProt Q8IZE3), the log2 fold change is inactive: -0.242.
Still for that read-out and setting: the result for SEC24B isoform 3 (UniProt O95487) reads inactive: 0.216; that for SCML2 (UniProt Q9UQR0), inactive: 0.033.
Still for that read-out and setting: the result for SELENOT (UniProt P62341) reads inactive: -0.19.
On the same count and under the same terms, the result for SAP130 isoform 3 (UniProt Q9H0E3) reads inactive: -0.082; that for SELENOK (UniProt Q9Y6D0), inactive: -0.593.
Regarding SCG3 (UniProt Q8WXD2), the log2 fold change is inactive: -0.003.
Consider SASH1 (UniProt O94885), for which the log2 fold change was inactive: 0.165.
Turning to SDHAF4 (UniProt Q5VUM1), the log2 fold change was inactive: 0.018.
Consider SCAI isoform 2 (UniProt Q8N9R8), for which the log2 fold change is inactive: -0.03.
Take SDHB, A0A087WWT1: the log2 fold change was inactive: -0.123.
For the target SDHB, A0A087WXX8, the log2 fold change was inactive: -0.047.
Still for that read-out and setting: the result for SEL1L3 (UniProt Q68CR1) reads inactive: 0.003.
Same read-out and setting: the result for SALL2 (UniProt Q9Y467) reads inactive: -0.08; that for SCGB1D2 (UniProt O95969), inactive: 0.141.
With SENP3 (UniProt Q9H4L4), the log2 fold change is inactive: 0.113.
Same read-out and setting: for SCARB2 (UniProt Q14108) the value was inactive: 0.127; for SEC61A1 (UniProt P61619), inactive: -0.025.
With SBNO2 (UniProt Q9Y2G9), the log2 fold change is inactive: -0.02.
Still for that read-out and setting: for SCAF1 (UniProt Q9H7N4) the value was inactive: -0.041.
Still for that read-out and setting: for SAFB isoform 3 (UniProt Q15424) the value was inactive: -0.16.

Compound in the next experiment: CN1CCC(CNc2ccc3ncc(-c4cccc(OC(F)(F)F)c4)n3n2)CC1
Described as above. The essentials:
as §1
Regarding SATB2 (UniProt Q9UPW6), the log2 fold change is inactive: 0.016.
On the same count and under the same terms, the result for SEMA4G isoform 2 (UniProt Q9NTN9) reads inactive: 0.04; that for SEC62 (UniProt Q99442), inactive: -0.12; that for SAP30 (UniProt O75446), inactive: -0.022.
On the same count and under the same terms, for SDHD (UniProt O14521) the value was inactive: -0.097; for SEC11C (UniProt Q9BY50), inactive: 0.009.
SCYL3 isoform 2 (UniProt Q8IZE3): the log2 fold change was inactive: -0.01.
Take SEC24B isoform 3 (UniProt O95487): the log2 fold change was inactive: -0.079.
Still for that read-out and setting: for SCML2 (UniProt Q9UQR0) the value was inactive: 0.032; for SELENOT (UniProt P62341), inactive: 0.156.
Turning to SAP130 isoform 3 (UniProt Q9H0E3), the log2 fold change is inactive: -0.038.
Still for that read-out and setting: for SELENOK (UniProt Q9Y6D0) the value was active: 0.529.
On to SCG3 (UniProt Q8WXD2), for which the log2 fold change was inactive: 0.026.
Same read-out and setting: the result for SASH1 (UniProt O94885) reads inactive: -0.03.
Same read-out and setting: for SDHAF4 (UniProt Q5VUM1) the value was inactive: 0.014; for SCAI isoform 2 (UniProt Q8N9R8), inactive: -0.099; for SDHB, A0A087WWT1, inactive: 0.067.
Still for that read-out and setting: the result for SDHB, A0A087WXX8 reads inactive: 0.053; that for SEL1L3 (UniProt Q68CR1), inactive: -0.022; that for SALL2 (UniProt Q9Y467), inactive: 0.294.
For SCGB1D2 (UniProt O95969), the log2 fold change was inactive: -0.208.
The same measure, in the same setting: the result for SENP3 (UniProt Q9H4L4) reads inactive: -0.172; that for SCARB2 (UniProt Q14108), inactive: -0.07.
On the same count and under the same terms, for SEC61A1 (UniProt P61619) the value was inactive: 0.073.
The same measure, in the same setting: the result for SBNO2 (UniProt Q9Y2G9) reads inactive: -0.088; that for SCAF1 (UniProt Q9H7N4), inactive: 0.008.
SAFB isoform 3 (UniProt Q15424): the log2 fold change is inactive: 0.054.
